Results are given in words; binding and its absence hold for the method and conditions named. Binding seen in cells or lysates may run through a third protein. Some binding calls cover weakened binding; strength is not graded here.
How the values were obtained:
[1] = target: T1, Synaptophysin (rat (endogenous in rat brain synaptic vesicles)), P07825; test: cross-linking; synaptic vesicles fused with ΔN-SNARE-proteoliposomes (100 nm liposomes), then BS3 and LC-MS/MS; vesicle proteins in the more spacious membrane; conditions: remark: other sources report otherwise
[2] = target: T1, Synaptophysin (rat (endogenous in rat …)); test: cross-linking; synaptic vesicles incubated with an excess of soluble ΔN-SNARE complex (about 3 copies per copy of Synaptobrevin-2, 16 h, 4 °C), then BS3 and LC-MS/MS; vesicle proteins and the SNARE complex on the vesicles; conditions: remark: other sources report otherwise
[3] = target: T2, CSP (rat (endogenous in rat brain synaptic vesicles)), P60905; test: cross-linking; purified, unstimulated, untreated rat brain synaptic vesicles; 10 mM BS3, 1 h, 25 °C; trypsin, enrichment of cross-linked peptides by peptide SEC, LC-MS/MS, pLink, manual validation; four biological replicates; conditions: remark: other sources report otherwise
T2 chain: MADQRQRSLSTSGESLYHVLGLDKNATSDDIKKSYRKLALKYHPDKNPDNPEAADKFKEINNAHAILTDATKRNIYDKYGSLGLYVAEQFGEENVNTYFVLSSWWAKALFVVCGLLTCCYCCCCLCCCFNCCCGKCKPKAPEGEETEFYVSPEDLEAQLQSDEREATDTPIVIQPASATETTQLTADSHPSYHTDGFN

[4] = target: Synapsin-1 (rat (endogenous in rat brain synaptic vesicles)), P09951; test: as above; conditions: remark: other sources report otherwise
[5] = target: T1, Synaptophysin (rat (endogenous in rat …)); test: as above; conditions: remark: other sources report otherwise
cross-linking = substrate: CSP (rat (endogenous in rat brain synaptic vesicles)) (UniProt P60905); test: cross-linking
[6] = substrate: CSP (rat (endogenous in rat brain synaptic vesicles)) (UniProt P60905); test: cross-linking; synaptic vesicles fused with ΔN-SNARE-proteoliposomes (100 nm liposomes), then BS3 and LC-MS/MS; vesicle proteins in the more spacious membrane
[7] = substrate: CSP (rat (endogenous in rat brain synaptic vesicles)) (UniProt P60905); test: cross-linking; purified, unstimulated, untreated rat brain synaptic vesicles; 10 mM BS3, 1 h, 25 °C; trypsin, enrichment of cross-linked peptides by peptide SEC, LC-MS/MS, pLink, manual validation; four biological replicates

Measured: binding

B1: Synaptophysin, P07825 1-307 (natural protein)
chain: MDVVNQLVAGGQFRVVKEPLGFVKVLQWVFAIFAFATCGSYTGELRLSVECANKTESALNIEVEFEYPFRLHQVYFDAPSCVKGGTTKIFLVGDYSSSAEFFVTVAVFAFLYSMGALATYIFLQNKYRENNKGPMMDFLATAVFAFMWLVSSSAWAKGLSDVKMATDPENIIKEMPMCRQTGNTCKELRDPVTSGLNTSVVFGFLNLVLWVGNLWFVFKETGWAAPFMRAPPGAPEKQPAPGDAYGDAGYGQGPGGYGPQDSYGPQGGYQPDYGQPASGGGGYGPQGDYGQQGYGQQGAPTSFSNQM
binds: [1] | [2] | [3] | [4] | [5]

B2: CSP (protein, UniProt P60905 1-198)
chain: MADQRQRSLSTSGESLYHVLGLDKNATSDDIKKSYRKLALKYHPDKNPDNPEAADKFKEINNAHAILTDATKRNIYDKYGSLGLYVAEQFGEENVNTYFVLSSWWAKALFVVCGLLTCCYCCCCLCCCFNCCCGKCKPKAPEGEETEFYVSPEDLEAQLQSDEREATDTPIVIQPASATETTQLTADSHPSYHTDGFN
binds: cross-linking | [6] | [7]

— publication PMC7870876
